Source: paper PMC10770396, “Dimerization of the 4Ig isoform of B7-H3 in tumor cells mediates enhanced proliferation and tumorigenic signaling” (Communications Biology, 2024)
These are yes or no findings as the source states them, for the method shown. Binding seen in cells or lysates may run through a third protein. Some entries that bind do so weakly or less than the wild type. Tags and fused reporters may be left off the sequences shown.

Molecular target: T1, 4Ig-B7-H3 split luciferase fusions (4Ig-B7-H3-nLuc and 4Ig-B7-H3-cLuc) (human), Q5ZPR3
T1 chain: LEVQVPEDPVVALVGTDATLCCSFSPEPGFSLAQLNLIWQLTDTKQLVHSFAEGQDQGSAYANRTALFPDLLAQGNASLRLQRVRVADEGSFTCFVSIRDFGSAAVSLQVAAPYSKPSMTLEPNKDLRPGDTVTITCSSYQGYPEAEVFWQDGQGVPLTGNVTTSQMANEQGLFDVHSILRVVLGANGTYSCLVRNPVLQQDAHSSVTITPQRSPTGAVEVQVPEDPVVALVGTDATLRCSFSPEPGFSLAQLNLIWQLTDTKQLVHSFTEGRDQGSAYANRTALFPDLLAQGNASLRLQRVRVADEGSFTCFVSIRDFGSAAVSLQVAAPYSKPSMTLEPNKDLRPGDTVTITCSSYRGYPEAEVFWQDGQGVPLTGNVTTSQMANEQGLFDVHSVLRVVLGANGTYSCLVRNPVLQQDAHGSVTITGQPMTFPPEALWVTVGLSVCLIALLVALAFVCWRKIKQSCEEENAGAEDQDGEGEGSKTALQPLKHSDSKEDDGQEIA
Assay: split reporter; ReBiL 2.0 split luciferase complementation in live U2OS cells, doxycycline-induced expression (3-48 h), D-luciferin, bioluminescence imaging (IVIS)
Details: remark: other sources report otherwise

binding: binds
B1: 4Ig-B7-H3 split luciferase fusions (4Ig-B7-H3-nLuc and 4Ig-B7-H3-cLuc), Q5ZPR3 29-534 (protein)
chain: LEVQVPEDPVVALVGTDATLCCSFSPEPGFSLAQLNLIWQLTDTKQLVHSFAEGQDQGSAYANRTALFPDLLAQGNASLRLQRVRVADEGSFTCFVSIRDFGSAAVSLQVAAPYSKPSMTLEPNKDLRPGDTVTITCSSYQGYPEAEVFWQDGQGVPLTGNVTTSQMANEQGLFDVHSILRVVLGANGTYSCLVRNPVLQQDAHSSVTITPQRSPTGAVEVQVPEDPVVALVGTDATLRCSFSPEPGFSLAQLNLIWQLTDTKQLVHSFTEGRDQGSAYANRTALFPDLLAQGNASLRLQRVRVADEGSFTCFVSIRDFGSAAVSLQVAAPYSKPSMTLEPNKDLRPGDTVTITCSSYRGYPEAEVFWQDGQGVPLTGNVTTSQMANEQGLFDVHSVLRVVLGANGTYSCLVRNPVLQQDAHGSVTITGQPMTFPPEALWVTVGLSVCLIALLVALAFVCWRKIKQSCEEENAGAEDQDGEGEGSKTALQPLKHSDSKEDDGQEIA
